The other results are listed elsewhere or left out.
Tests used:
Assay in all cases: log2 fold change, soluble protein after heating vs DMSO (PISA); higher = thermal stabilisation; K562 lysate, 10 uM; active = over 0.2 and 3.5 SD of the protein, either way, in both replicates (recomputed)
[1] = compound: C1=CC=C(C=C1)[C@H](COC2=CC3=C(C=C2)NC(=O)N3)NC(=O)C4=CC=CN(C4=O)CC5=CC(=C(C=C5)F)F
Method in brief: (§1)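 Quantification was by TMTpro 16plex LC-MS/MS with equalised channel sums, applied to the supernatant after 21,000xg for 90 min. Samples were crude K562 extract at 1 mg/mL protein in PBS pH 7.4 with 1 mM MgCl2, treated with 10 μM compound for 30 min, heated for 3 min across 48°C-58°C, pooled and brought to 0.5% NP-40 at 4°C. Values are log-two fold changes in thermal stability relative to solvent controls, from duplicates.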

The chains behind the UniProt entries cited, without tags or fusion partners. Where a name states a change or a piece, a line headed by the entry shows the natural chain unless it says otherwise.
UniProt Q9UI95, whole entry, looked up: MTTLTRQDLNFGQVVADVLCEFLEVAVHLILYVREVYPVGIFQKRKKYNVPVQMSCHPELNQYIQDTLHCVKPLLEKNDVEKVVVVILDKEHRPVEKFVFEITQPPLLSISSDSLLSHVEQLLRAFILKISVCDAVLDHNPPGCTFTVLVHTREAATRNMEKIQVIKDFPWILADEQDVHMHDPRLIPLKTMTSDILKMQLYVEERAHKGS
UniProt Q7L5Y9: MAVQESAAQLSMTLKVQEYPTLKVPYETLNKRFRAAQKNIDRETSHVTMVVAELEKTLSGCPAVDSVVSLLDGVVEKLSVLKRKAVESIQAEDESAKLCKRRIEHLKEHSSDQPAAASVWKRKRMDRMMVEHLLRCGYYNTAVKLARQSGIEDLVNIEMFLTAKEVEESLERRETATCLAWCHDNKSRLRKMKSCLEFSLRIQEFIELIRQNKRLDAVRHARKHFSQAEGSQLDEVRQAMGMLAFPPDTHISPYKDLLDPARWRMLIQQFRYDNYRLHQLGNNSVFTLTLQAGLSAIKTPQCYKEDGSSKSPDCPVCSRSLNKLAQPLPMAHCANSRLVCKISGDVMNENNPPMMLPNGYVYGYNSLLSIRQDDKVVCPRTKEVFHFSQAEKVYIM
UniProt Q96A72, whole entry, looked up: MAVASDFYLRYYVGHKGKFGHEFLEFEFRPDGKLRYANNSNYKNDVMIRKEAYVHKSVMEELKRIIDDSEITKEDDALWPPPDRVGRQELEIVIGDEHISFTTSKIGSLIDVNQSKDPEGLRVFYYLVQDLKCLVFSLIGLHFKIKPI
UniProt Q96S90: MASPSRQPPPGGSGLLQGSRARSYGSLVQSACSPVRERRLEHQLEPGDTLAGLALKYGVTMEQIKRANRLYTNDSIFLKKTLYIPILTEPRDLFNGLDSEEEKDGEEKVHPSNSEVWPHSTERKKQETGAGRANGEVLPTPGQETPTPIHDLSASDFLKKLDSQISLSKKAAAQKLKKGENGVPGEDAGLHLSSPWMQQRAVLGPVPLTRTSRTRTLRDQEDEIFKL
UniProt Q15013: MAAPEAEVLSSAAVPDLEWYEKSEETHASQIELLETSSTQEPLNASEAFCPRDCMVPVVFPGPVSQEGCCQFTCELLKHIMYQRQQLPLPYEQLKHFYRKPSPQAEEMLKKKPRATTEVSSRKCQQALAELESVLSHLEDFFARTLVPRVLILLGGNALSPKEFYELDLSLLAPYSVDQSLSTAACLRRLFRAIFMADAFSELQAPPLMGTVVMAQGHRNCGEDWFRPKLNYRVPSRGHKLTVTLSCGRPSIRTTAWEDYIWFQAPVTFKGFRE
UniProt Q9UNF1: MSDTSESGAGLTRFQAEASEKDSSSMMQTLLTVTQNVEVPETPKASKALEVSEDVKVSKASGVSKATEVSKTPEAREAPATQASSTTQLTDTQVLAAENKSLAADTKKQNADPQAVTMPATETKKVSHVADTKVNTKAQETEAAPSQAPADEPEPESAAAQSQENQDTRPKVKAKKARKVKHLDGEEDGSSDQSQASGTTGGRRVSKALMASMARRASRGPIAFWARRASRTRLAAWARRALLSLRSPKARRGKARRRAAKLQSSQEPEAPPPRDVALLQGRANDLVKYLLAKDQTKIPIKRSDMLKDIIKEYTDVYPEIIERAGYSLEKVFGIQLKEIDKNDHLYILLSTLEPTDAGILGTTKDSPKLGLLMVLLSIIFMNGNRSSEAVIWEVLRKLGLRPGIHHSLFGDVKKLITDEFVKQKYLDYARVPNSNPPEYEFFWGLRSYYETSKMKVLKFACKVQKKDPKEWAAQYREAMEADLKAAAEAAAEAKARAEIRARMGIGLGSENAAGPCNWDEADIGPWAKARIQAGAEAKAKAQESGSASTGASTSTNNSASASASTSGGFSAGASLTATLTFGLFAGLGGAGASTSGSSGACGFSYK
UniProt P41279, whole entry, looked up: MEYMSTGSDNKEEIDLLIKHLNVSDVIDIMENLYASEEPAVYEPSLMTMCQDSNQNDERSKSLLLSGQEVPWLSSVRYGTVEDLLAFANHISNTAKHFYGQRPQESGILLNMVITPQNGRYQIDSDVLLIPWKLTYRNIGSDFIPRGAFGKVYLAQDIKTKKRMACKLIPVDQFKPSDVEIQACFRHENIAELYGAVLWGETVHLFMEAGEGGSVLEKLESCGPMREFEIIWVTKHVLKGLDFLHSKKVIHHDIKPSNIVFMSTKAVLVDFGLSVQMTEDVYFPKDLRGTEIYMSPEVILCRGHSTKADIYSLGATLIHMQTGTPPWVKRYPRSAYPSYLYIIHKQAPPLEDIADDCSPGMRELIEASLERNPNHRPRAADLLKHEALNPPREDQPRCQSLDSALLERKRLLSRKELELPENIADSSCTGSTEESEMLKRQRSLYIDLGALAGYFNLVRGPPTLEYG
UniProt Q8WV07: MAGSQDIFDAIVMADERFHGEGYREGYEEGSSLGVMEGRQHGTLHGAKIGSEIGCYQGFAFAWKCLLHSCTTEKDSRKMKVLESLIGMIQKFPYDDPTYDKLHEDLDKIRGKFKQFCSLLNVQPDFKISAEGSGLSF
UniProt Q15691: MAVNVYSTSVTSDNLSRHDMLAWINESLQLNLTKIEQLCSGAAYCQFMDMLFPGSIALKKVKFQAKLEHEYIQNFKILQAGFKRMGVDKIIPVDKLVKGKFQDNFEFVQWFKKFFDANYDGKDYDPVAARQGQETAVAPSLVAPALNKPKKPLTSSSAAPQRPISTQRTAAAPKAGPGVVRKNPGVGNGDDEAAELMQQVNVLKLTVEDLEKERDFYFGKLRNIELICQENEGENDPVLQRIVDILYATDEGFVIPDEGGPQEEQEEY
UniProt Q9UPT6: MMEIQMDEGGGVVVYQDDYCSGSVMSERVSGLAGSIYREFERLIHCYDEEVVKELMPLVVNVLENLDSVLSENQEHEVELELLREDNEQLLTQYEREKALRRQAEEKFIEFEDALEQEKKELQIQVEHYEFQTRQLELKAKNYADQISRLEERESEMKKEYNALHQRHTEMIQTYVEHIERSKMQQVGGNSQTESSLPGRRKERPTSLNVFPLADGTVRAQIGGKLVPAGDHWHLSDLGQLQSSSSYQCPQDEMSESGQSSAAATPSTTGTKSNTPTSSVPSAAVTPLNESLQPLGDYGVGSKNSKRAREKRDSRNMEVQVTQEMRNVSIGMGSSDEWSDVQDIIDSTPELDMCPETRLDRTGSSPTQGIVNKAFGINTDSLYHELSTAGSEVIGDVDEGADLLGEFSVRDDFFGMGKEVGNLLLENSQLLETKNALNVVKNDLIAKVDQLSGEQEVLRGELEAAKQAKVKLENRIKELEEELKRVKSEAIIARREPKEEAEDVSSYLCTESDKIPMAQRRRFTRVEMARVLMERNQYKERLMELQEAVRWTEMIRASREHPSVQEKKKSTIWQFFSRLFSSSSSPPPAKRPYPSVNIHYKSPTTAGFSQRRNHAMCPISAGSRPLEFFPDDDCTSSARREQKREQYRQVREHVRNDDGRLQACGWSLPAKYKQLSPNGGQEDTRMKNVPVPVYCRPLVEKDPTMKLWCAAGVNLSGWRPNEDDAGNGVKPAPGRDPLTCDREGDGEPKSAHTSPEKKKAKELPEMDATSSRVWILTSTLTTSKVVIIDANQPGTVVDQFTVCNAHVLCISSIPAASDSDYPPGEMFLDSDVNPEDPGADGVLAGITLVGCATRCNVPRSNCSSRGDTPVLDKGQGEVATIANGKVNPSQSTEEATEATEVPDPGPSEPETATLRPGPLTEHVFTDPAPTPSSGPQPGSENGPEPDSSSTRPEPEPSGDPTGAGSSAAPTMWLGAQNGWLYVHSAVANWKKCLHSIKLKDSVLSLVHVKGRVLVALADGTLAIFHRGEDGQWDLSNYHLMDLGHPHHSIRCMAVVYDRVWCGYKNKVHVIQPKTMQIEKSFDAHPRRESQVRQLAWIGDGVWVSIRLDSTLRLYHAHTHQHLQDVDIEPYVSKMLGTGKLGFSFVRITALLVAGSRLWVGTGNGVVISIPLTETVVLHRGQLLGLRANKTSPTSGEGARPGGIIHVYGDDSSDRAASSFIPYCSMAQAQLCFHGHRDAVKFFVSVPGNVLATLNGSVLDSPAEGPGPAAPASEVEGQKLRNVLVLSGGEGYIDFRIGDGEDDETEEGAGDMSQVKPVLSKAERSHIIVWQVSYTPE
UniProt Q9Y6R4: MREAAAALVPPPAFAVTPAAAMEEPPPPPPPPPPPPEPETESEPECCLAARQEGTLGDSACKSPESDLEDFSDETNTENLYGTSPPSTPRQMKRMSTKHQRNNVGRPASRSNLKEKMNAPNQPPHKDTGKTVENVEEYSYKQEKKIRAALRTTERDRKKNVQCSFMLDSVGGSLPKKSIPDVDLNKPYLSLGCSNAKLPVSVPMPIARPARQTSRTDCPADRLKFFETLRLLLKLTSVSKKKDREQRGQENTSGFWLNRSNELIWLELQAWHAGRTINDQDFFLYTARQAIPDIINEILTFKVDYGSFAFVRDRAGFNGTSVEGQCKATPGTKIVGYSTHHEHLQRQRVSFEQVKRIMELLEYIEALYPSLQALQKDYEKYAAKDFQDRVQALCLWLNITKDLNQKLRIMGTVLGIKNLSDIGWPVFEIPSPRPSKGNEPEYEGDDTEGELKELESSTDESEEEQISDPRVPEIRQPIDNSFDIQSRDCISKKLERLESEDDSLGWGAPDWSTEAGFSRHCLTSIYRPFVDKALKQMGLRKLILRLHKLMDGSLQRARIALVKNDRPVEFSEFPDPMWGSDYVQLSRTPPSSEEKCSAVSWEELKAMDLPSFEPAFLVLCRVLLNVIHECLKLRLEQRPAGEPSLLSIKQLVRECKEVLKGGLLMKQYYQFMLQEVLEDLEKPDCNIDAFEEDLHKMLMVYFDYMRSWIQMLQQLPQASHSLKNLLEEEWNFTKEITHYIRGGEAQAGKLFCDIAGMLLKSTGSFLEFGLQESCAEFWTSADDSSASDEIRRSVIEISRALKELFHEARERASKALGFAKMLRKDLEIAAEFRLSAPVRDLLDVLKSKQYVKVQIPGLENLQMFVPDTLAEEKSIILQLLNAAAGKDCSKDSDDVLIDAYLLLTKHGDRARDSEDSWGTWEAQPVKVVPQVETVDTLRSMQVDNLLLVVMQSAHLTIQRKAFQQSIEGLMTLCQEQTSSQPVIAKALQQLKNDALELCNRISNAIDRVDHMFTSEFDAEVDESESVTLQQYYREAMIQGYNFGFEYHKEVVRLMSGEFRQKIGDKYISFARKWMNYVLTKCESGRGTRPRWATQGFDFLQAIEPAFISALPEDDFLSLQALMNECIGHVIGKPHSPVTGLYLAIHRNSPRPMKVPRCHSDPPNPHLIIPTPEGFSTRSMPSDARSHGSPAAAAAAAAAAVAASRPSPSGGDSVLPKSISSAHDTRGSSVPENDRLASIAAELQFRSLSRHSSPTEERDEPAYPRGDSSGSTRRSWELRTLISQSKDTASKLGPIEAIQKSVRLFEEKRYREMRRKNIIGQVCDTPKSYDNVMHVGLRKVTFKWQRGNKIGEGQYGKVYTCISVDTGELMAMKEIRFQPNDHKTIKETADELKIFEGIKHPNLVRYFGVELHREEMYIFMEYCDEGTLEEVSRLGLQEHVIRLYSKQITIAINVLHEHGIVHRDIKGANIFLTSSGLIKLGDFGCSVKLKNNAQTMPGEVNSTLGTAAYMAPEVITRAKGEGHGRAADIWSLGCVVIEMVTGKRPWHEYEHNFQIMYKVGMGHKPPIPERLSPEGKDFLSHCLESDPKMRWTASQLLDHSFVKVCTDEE
UniProt Q16553: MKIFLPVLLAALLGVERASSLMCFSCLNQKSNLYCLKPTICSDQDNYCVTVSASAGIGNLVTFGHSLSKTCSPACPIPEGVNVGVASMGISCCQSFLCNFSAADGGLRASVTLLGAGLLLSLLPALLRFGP
UniProt Q9Y5V3: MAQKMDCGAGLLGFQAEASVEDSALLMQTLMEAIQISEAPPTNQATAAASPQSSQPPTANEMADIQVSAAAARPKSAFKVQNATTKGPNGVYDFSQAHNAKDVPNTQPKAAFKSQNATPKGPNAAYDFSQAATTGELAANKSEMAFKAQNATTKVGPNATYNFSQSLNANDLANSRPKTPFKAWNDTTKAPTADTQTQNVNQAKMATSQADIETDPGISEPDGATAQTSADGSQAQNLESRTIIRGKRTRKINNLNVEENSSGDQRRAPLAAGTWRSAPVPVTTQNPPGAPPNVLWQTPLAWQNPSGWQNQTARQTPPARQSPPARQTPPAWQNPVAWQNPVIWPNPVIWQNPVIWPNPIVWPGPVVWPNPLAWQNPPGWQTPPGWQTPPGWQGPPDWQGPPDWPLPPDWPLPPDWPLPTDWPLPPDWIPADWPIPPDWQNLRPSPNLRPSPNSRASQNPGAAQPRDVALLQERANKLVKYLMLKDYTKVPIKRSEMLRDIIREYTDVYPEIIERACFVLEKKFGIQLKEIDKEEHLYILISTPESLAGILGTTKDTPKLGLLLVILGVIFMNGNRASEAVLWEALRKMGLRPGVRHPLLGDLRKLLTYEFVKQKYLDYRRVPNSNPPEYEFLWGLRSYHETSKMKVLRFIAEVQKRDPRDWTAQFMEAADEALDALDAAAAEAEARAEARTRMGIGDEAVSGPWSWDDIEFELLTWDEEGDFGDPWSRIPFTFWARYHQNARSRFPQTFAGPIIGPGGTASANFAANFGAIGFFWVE

[2] = compound: CC1=C(SC2=C1C(=N[C@H](C3=NN=C(N32)C)CC(=O)N)C4=CC=C(C=C4)Cl)C
Method in brief: as §1

[3] = compound: CC1=C2C(=CC=C1)N=C(N(C2=O)C3=CC=CC=C3C)CN4C=NC5=C(N=CN=C54)N
Method in brief: as §1

[4] = compound: Cc1sc2c(c1C)C(c1ccc(Cl)cc1)=N[C@@H](CC(=O)OC(C)(C)C)c1nnc(C)n1-2
Method in brief: as §1

[5] = compound: c1ccc([C@@H]2C[C@H]2NC2CCNCC2)cc1
Method in brief: as §1

Measured: log2 fold change

MAD2L2 (UniProt Q9UI95)
inactive: [1] -0.032 | [2] -0.006 | [3] -0.018 | [4] -0.085 | [5] 0.096

MAEA (UniProt Q7L5Y9)
inactive: [1] -0.044 | [2] 0.056 | [3] 0.022 | [4] 0.022 | [5] 0.038

MAN2C1 isoform 4 (UniProt Q9NTJ4)
inactive: [1] 0.042 | [2] 0.017 | [3] -0.001 | [4] -0.125 | [5] -0.012

MAGEB1 (UniProt P43366)
inactive: [1] 0.003 | [2] 0.023 | [3] -0.011 | [4] -0.008 | [5] 0.029

MAML1 (UniProt Q92585)
inactive: [1] 0.029 | [2] 0.127 | [3] -0.057 | [4] -0.145 | [5] -0.011

2 successive records already listed, quoted:
MAD2L2 (UniProt Q9UI95)
inactive: [1] -0.032 | [2] -0.006 | [3] -0.018 | [4] -0.085 | [5] 0.096

MAEA (UniProt Q7L5Y9)
inactive: [1] -0.044 | [2] 0.056 | [3] 0.022 | [4] 0.022 | [5] 0.038

(list continues)

MAN1A2 (UniProt O60476)
inactive: [1] -0.019 | [2] 0.035 | [3] 0.037 | [4] 0.055 | [5] 0.073

MAP1LC3B2 (UniProt A6NCE7)
inactive: [1] -0.051 | [2] 0.007 | [3] -0.001 | [4] 0.048 | [5] -0.019

MAN1A1 (UniProt P33908)
inactive: [1] 0.056 | [2] -0.029 | [3] -0.056 | [4] -0.049 | [5] -0.017

MASTL (UniProt Q96GX5)
inactive: [1] 0.036 | [2] -0.055 | [3] 0.134 | [4] 0.01 | [5] -0.016

MAP2K2 (UniProt P36507)
inactive: [1] -0.04 | [2] 0.022 | [3] -0.047 | [4] -0.068 | [5] 0.064

MAGOHB (UniProt Q96A72)
inactive: [1] -0.03 | [2] -0.015 | [3] -0.006 | [4] 0.046 | [5] -0.017

LYSMD1 (UniProt Q96S90)
inactive: [1] 0.029 | [2] 0.019 | [3] 0.048 | [4] -0.006 | [5] -0.031

LYAR (UniProt Q9NX58)
inactive: [1] 0.051 | [2] 0.015 | [3] -0.006 | [4] 0.031 | [5] 0.11

MAP2K7 isoform 4 (UniProt O14733)
inactive: [1] -0.072 | [2] -0.261 | [3] -0.038 | [4] 0.066 | [5] 0.079

MAGEA1 (UniProt P43355)
inactive: [1] -0.01 | [2] 0.075 | [3] -0.008 | [4] 0.002 | [5] -0.001

LYZ (UniProt P61626)
inactive: [1] -0.065 | [2] 0.064 | [3] 0.383 | [4] 0.048 | [5] -0.189

MAD2L1BP isoform 3 (UniProt Q15013)
inactive: [1] 0.003 | [2] 0.005 | [3] -0.013 | [4] -0.01 | [5] -0.006

MAGED2 (UniProt Q9UNF1)
inactive: [1] 0 | [2] 0.08 | [3] 0.076 | [4] 0 | [5] 0.048

MARF1 (UniProt Q9Y4F3)
inactive: [1] -0.052 | [2] 0.013 | [3] 0.175 | [4] 0.024 | [5] -0.023

MAN2B1 (UniProt O00754)
inactive: [1] 0.006 | [2] 0.013 | [3] 0.012 | [4] -0.013 | [5] 0.035

MAGEB2 (UniProt O15479)
inactive: [1] 0.019 | [2] 0.018 | [3] -0.026 | [4] 0.02 | [5] 0.004

MAP4K4 isoform 6 (UniProt O95819)
inactive: [1] 0.076 | [2] 0.063 | [4] -0.163

MAP3K8 (UniProt P41279)
inactive: [1] 0.002 | [2] 0.03 | [4] 0.205 | [5] -0.105

MAPK9 (UniProt P45984)
inactive: [1] -0.021 | [2] 0.013 | [3] 0.045 | [4] -0.071 | [5] 0.033

LTO1 (UniProt Q8WV07)
inactive: [1] -0.021 | [2] -0.232 | [3] 0.027 | [4] 0.036 | [5] -0.041

MARS2 (UniProt Q96GW9)
inactive: [1] 0.016 | [2] 0.04 | [3] -0.025 | [4] 0.006 | [5] -0.006

MAP4K3 (UniProt Q8IVH8)
inactive: [1] 0.286 | [2] 0.19 | [4] 0.158

MACF1 isoform 3 (UniProt Q9UPN3)
inactive: [1] -0.001 | [2] 0.002 | [3] 0.027 | [4] -0.011 | [5] 0

MAN2A1 (UniProt Q16706)
inactive: [1] 0.021 | [2] -0.046 | [3] -0.015 | [4] -0.021 | [5] 0.017

MAPRE1 (UniProt Q15691)
inactive: [1] -0.016 | [2] -0.023 | [3] -0.034 | [4] 0.02 | [5] 0.06

MAPK3 (UniProt P27361)
inactive: [1] 0.008 | [2] 0.006 | [3] -0.05 | [4] 0.036 | [5] -0.048

MAPK8IP3 (UniProt Q9UPT6)
inactive: [1] 0.02 | [2] 0.027 | [3] 0.062 | [4] -0.065 | [5] 0.043

LTA4H (UniProt P09960)
inactive: [1] 0.026 | [2] -0.024 | [3] -0.026 | [4] 0.006 | [5] 0.029

MAP3K5 (UniProt Q99683)
inactive: [1] -0.015 | [2] -0.172 | [3] 0.022 | [5] -0.023

MAP2K3 isoform 3 (UniProt P46734)
inactive: [1] 0.035 | [2] -0.021 | [3] -0.024 | [4] 0.043 | [5] -0.006

MAP3K4 (UniProt Q9Y6R4)
inactive: [1] 0.012 | [2] -0.079 | [3] -0.001 | [4] -0.03 | [5] -0.008

LTBP1 isoform 4 (UniProt Q14766)
inactive: [1] -0.02 | [2] -0.118 | [4] 0.115 | [5] 0.096

LY6E (UniProt Q16553)
inactive: [1] -0.031 | [2] -0.046 | [3] -0.075 | [5] -0.815

MAPKAPK5 (UniProt Q8IW41)
inactive: [1] 0.034 | [2] 0.027 | [3] 0.014 | [4] 0.013 | [5] 0.01

MAP2K1 (UniProt Q02750)
inactive: [1] -0.012 | [2] 0.016 | [3] -0.047 | [4] -0.048 | [5] 0.081

MAGED1 isoform 2 (UniProt Q9Y5V3)
inactive: [1] -0.072 | [2] 0.081 | [3] 0.084 | [5] -0.069

LZTFL1 (UniProt Q9NQ48)
inactive: [1] 0.009 | [2] 0.028 | [3] -0.005 | [4] -0.011 | [5] 0.03
